Test [1] deals with T. gondii RH strain (RH-Tub-eYFP) tachyzoites. Type of test: cell-based, Toxoplasma gondii.
For test [2], the system named is P. falciparum 3D7 parasites. Description: P. falciparum growth inhibition assay, 1-cycle (72 h treatment), SYBR DNA staining (library screen at 2 μg/mL and dose-response). Type of test: cell-based, Plasmodium falciparum.
Test [3] deals with P. falciparum 3D7 parasites. Description: P. falciparum growth inhibition assay, 2-cycle (120 h treatment), delayed-death screen and dose-response. It counts as cell-based, Plasmodium falciparum.

In test [1], `C/C=C/C[C@@H](C)[C@@H](O)[C@H]1C(=O)N[C@@H](C)C(=O)N(C)CC(=O)N(C)[C@@H](CC(C)C)C(=O)N[C@@H](C(C)C)C(=O)N(C)[C@@H](CC(C)C)C(=O)N[C@@H](C)C(=O)N[C@H](C)C(=O)N(C)[C@@H](CC(C)C)C(=O)N(C)[C@@H](CC(C)C)C(=O)N(C)[C@@H](C(C)C)C(=O)N1C` [Cyclosporin B] returned a Tg_72h_%Growth_Rep1 of 78.12% and a Tg_72h_%Growth_Rep2 of 84.02%. In addition, in test [2], the Pf_72h_%Growth_Rep1 worked out at 2.11% and the Pf_72h_%Growth_Rep2 was -1.27%. For the same molecule, in test [3], the Pf_120h_%Growth_Rep1 came out at 9.68% and the Pf_120h_%Growth_Rep2 is 10.86%.
